# Data from paper PMC4566985.
# No constants are given. Whether binding was seen depends on the method and setting. Some entries that bind do so weakly or less than the wild type.
# T1: Mitogen-activated protein kinase kinase 5 (MKK5) (Arabidopsis) (UniProt Q8RXG3)
# T1 sequence: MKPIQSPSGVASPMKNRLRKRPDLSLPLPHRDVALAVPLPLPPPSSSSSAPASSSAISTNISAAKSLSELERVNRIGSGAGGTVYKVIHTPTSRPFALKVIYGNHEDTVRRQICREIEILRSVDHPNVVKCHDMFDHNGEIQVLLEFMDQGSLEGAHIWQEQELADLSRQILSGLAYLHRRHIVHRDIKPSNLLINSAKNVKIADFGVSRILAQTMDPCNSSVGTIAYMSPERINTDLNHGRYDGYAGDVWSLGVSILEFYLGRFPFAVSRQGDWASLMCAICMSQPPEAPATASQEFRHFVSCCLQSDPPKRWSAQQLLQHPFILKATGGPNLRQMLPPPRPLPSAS
# Target: T1, Mitogen-activated protein kinase kinase 5 (MKK5) (Arabidopsis)
# Experiment: two-hybrid; ProQuest Two-Hybrid System (Invitrogen) in yeast; pEXP32-MKK5 as bait, pEXP22-MEKK1 as prey; growth on SC -Leu -Trp -Ura, on 0.2% 5-FOA, on -His with 100 mM 3AT, X-Gal assay on membrane, quantitative beta-galactosidase assay in liquid culture
row,binding,Binder
1,binds,"MEKK1 (protein, UniProt Q39008 1-608) MDRILARMKKSTGRRGGDKNITPVRRLERRDAARNINYDAASCSSSSAEDLSVSTSSLMTRSLEFPEPTSFRIGGGVGEMDRIYRSLGVSGPDDLAISFDAWEACKKRSSSDVVNRFKSFDLDKVRDQDLSEEGPSGVVVGSDSMNHKVQGQDLSEAGPSGGIVTELSEIGNLITPVDRLVADGVVENRRVMERTPTIVKSKGYLVPNNVVAVGVGVGGGIKGLRPPVLKPPPAMKRPPIDHRGSSWDFLTHFAPSETVKRPSSSSSSSEDGCDEEEGKEEEAEAEEMGARFIQLGDTADETCSFTTNEGDSSSTVSNTSPIYPDGGAIITSWQKGQLLGRGSFGSVYEGISGDGDFFAVKEVSLLDQGSQAQECIQQLEGEIKLLSQLQHQNIVRYRGTAKDGSNLYIFLELVTQGSLLKLYQRYQLRDSVVSLYTRQILDGLKYLHDKGFIHRDIKCANILVDANGAVKLADFGLAKVSKFNDIKSCKGTPFWMAPEVINRKDSDGYGSPADIWSLGCTVLEMCTGQIPYSDLEPVQALFRIGRGTLPEVPDTLSLDARLFILKCLKVNPEERPTAAELLNHPFVRRPLPSVGSGGSGSASPLLRR"
2,no binding,"ANP1 (protein, UniProt O22040 1-666) MQDFFGSVRRSLVFRPSSDDDNQENQPPFPGVLADKITSCIRKSKIFIKPSFSPPPPANTVDMAPPISWRKGQLIGRGAFGTVYMGMNLDSGELLAVKQVLIAANFASKEKTQAHIQELEEEVKLLKNLSHPNIVRYLGTVREDDTLNILLEFVPGGSISSLLEKFGPFPESVVRTYTRQLLLGLEYLHNHAIMHRDIKGANILVDNKGCIKLADFGASKQVAELATMTGAKSMKGTPYWMAPEVILQTGHSFSADIWSVGCTVIEMVTGKAPWSQQYKEVAAIFFIGTTKSHPPIPDTLSSDAKDFLLKCLQEVPNLRPTASELLKHPFVMGKHKESASTDLGSVLNNLSTPLPLQINNTKSTPDSTCDDVGDMCNFGSLNYSLVDPVKSIQNKNLWQQNDNGGDEDDMCLIDDENFLTFDGEMSSTLEKDCHLKKSCDDISDMSIALKSKFDESPGNGEKESTMSMECDQPSYSEDDDELTESKIKAFLDEKAADLKKLQTPLYEEFYNSLITFSPSCMESNLSNSKREDTARGFLKLPPKSRSPSRGPLGGSPSRATDATSCSKSPGSGGSRELNINNGGDEASQDGVSARVTDWRGLVVDTKQELSQCVALSEIEKKWKEELDQELERKRQEIMRQAGLGSSPRDRGMSRQREKSRFASPGK"
3,no binding,"ANP2 (protein, UniProt Q9FZ36 1-651) MQDLFGSVRRSLVFRSTTDDENQENHPPPFPSLLADKITSCIRKSMVFAKSQSPPNNSTVQIKPPIRWRKGQLIGRGAFGTVYMGMNLDSGELLAVKQVLITSNCASKEKTQAHIQELEEEVKLLKNLSHPNIVRYLGTVREDETLNILLEFVPGGSISSLLEKFGAFPESVVRTYTNQLLLGLEYLHNHAIMHRDIKGANILVDNQGCIKLADFGASKQVAELATISGAKSMKGTPYWMAPEVILQTGHSFSADIWSVGCTVIEMVTGKAPWSQQYKEIAAIFHIGTTKSHPPIPDNISSDANDFLLKCLQQEPNLRPTASELLKHPFVTGKQKESASKDLTSFMDNSCSPLPSELTNITSYQTSTSDDVGDICNLGSLTCTLAFPEKSIQNNSLCLKSNNGYDDDDDNDMCLIDDENFLTYNGETGPSLDNNTDAKKSCDTMSEISDILKCKFDENSGNGETETKVSMEVDHPSYSEDENELTESKIKAFLDDKAAELKKLQTPLYEEFYNGMITCSPICMESNINNNKREEAPRGFLKLPPKSRSPSQGHIGRSPSRATDAACCSKSPESGNSSGAPKNSNASAGAEQESNSQSVALSEIERKWKEELDQELERKRREITRQAGMGSSPRDRSLSRHREKSRFASPGK"
